Data on 4 molecules can be found in PMC11261447.

Amino acid sequences for entries named in this document (tags omitted).
UniProt Q12834: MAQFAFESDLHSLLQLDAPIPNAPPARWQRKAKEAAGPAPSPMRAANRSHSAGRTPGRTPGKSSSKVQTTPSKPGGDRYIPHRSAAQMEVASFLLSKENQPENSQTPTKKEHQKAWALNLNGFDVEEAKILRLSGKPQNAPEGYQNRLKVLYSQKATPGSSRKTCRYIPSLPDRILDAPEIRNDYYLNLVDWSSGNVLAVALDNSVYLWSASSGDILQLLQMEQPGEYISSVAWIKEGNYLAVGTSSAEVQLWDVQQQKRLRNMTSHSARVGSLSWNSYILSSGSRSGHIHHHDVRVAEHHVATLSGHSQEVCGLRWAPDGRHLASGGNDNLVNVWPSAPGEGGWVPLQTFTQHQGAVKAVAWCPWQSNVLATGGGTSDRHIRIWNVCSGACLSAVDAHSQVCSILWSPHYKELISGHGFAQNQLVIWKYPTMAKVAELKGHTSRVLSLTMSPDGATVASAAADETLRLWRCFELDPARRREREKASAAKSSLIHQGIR

Results are given in words; binding and its absence hold for the method and conditions named. In cells and extracts the contact can be indirect. Some binding calls cover weakened binding; strength is not graded here. Tags and fused reporters may be left off the sequences shown.

The target in test [1] is T1, O-linked β-N-acetylglucosamine (O-GlcNAc) transferase (OGT), endogenous (human (endogenous in 293T)) (UniProt O15294).
T1 sequence: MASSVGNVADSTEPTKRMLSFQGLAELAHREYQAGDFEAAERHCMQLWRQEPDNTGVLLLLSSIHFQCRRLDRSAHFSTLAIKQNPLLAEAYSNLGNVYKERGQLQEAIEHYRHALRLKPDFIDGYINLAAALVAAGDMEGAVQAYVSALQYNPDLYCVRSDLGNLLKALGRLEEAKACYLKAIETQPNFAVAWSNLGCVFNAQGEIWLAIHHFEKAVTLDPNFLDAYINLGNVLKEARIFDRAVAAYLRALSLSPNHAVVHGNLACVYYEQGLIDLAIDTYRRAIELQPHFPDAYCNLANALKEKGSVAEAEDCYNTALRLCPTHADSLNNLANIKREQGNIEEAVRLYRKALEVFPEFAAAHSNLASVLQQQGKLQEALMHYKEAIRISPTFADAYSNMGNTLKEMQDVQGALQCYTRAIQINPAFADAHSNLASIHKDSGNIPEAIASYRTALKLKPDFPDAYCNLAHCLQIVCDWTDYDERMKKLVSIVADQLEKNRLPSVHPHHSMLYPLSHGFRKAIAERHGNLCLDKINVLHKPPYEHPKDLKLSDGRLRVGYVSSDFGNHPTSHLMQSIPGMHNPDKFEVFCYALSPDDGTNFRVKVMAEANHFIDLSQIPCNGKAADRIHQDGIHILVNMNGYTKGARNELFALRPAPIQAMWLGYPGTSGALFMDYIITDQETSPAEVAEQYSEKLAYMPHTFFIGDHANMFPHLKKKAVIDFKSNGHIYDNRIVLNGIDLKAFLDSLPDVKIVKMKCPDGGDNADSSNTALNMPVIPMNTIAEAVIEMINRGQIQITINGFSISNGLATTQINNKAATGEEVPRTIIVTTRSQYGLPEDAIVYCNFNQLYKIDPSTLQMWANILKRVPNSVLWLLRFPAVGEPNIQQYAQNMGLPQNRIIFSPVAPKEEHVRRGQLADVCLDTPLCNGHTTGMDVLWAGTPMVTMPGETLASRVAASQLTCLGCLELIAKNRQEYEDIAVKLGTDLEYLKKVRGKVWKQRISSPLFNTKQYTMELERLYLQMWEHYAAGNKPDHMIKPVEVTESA
Kind of test: co-IP; cells transfected with Flag-Cdc20, treated with nocodazole or not; endogenous OGT; immunoprecipitation and immunoblotting with the antibodies indicated. (In general: A western blot detects proteins with antibodies after separation by electrophoresis.)

Another test concerns the target T2, HA-OGT-WT (UniProt O15294).
T2 sequence: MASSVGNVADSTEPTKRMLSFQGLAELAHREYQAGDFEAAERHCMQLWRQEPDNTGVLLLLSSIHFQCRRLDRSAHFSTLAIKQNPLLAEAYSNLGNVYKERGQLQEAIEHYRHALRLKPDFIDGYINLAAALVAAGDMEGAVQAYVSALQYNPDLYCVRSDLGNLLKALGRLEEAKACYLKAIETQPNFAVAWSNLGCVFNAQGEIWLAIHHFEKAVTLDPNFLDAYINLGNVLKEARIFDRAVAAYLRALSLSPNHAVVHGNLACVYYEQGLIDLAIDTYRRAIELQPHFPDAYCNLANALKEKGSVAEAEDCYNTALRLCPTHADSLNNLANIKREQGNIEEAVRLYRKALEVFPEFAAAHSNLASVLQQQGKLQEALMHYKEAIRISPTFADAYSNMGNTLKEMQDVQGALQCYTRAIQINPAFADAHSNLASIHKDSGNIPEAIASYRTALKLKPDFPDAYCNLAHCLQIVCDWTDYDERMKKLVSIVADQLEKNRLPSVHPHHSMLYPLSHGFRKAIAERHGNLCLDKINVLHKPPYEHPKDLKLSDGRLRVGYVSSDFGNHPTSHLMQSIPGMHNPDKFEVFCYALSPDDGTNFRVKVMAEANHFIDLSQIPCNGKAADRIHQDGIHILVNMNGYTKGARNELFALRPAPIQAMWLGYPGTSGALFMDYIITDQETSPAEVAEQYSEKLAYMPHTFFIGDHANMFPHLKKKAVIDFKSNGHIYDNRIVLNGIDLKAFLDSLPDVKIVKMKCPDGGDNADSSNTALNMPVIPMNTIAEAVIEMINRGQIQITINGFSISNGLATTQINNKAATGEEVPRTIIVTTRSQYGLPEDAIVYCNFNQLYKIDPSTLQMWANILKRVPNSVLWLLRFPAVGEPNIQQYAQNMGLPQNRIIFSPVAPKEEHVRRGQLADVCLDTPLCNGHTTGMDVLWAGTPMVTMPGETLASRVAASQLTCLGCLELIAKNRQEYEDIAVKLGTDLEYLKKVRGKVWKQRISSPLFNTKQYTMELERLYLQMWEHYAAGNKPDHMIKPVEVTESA
Kind of test: co-IP; cells (293T where named) transfected with HA-OGT (WT or mutant) and Flag-CDC20; lysates immunoprecipitated and immunoblotted with the antibodies indicated.

Test [2] deals with T1, O-linked β-N-acetylglucosamine (O-GlcNAc) transferase (OGT), endogenous (human (endogenous in 293T)). Briefly: co-IP; endogenous proteins; lysates of 293T cells treated with nocodazole or not, immunoprecipitated with an anti-OGT antibody, immunoblotted with anti-OGT and anti-CDC20.
In another test the target is T3, recombinant GST-OGT (UniProt O15294).
T3 sequence: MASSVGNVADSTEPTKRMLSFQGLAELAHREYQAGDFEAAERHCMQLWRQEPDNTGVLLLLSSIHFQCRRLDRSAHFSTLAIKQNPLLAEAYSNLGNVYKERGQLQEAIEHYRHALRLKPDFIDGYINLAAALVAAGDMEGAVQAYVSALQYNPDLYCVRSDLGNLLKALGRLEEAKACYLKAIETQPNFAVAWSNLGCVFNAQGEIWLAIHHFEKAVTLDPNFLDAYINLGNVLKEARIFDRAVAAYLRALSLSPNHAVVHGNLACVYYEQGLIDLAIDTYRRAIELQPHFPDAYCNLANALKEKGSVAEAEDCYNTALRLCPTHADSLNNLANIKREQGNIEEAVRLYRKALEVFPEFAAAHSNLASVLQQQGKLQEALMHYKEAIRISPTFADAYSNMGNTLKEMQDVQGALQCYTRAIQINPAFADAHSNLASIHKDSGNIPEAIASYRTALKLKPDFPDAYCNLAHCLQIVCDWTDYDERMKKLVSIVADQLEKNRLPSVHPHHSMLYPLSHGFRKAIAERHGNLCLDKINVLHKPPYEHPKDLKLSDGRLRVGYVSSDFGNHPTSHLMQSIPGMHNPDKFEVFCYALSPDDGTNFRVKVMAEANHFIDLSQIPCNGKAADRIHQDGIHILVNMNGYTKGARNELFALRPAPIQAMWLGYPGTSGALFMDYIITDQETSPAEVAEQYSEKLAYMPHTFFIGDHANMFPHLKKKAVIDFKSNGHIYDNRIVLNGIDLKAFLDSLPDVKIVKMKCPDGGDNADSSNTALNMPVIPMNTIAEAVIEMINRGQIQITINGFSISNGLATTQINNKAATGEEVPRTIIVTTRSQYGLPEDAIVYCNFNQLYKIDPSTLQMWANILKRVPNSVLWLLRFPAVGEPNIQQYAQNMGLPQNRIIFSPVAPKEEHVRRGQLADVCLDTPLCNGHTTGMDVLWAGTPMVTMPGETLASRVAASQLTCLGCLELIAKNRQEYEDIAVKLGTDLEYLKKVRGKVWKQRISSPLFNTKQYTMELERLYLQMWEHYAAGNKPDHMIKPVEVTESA
Briefly: pull-down; lysates of cells transfected with HA-CDC20 incubated with recombinant GST-OGT; only the target purified.

The next test deals with Flag-CDC20 (UniProt Q12834). Kind of test: co-IP; cells (293T where named) transfected with HA-OGT (WT or mutant) and Flag-CDC20; lysates immunoprecipitated and immunoblotted with the antibodies indicated.

As for Flag-CDC20 (from UniProt Q12834 1-499), the binding entry (in test [1]; in the test with HA-OGT-WT) was “binds” each time.

As for “cell division cycle 20 (Cdc20), endogenous (from UniProt Q12834 1-499)”, the binding entry in test [2] was “binds”.

Take HA-CDC20 (from UniProt Q12834 1-499): in the test with recombinant GST-OGT, the binding entry was “binds”.

B1: HA-OGT-WT (enzyme, UniProt O15294 1-1046)
chain: MASSVGNVADSTEPTKRMLSFQGLAELAHREYQAGDFEAAERHCMQLWRQEPDNTGVLLLLSSIHFQCRRLDRSAHFSTLAIKQNPLLAEAYSNLGNVYKERGQLQEAIEHYRHALRLKPDFIDGYINLAAALVAAGDMEGAVQAYVSALQYNPDLYCVRSDLGNLLKALGRLEEAKACYLKAIETQPNFAVAWSNLGCVFNAQGEIWLAIHHFEKAVTLDPNFLDAYINLGNVLKEARIFDRAVAAYLRALSLSPNHAVVHGNLACVYYEQGLIDLAIDTYRRAIELQPHFPDAYCNLANALKEKGSVAEAEDCYNTALRLCPTHADSLNNLANIKREQGNIEEAVRLYRKALEVFPEFAAAHSNLASVLQQQGKLQEALMHYKEAIRISPTFADAYSNMGNTLKEMQDVQGALQCYTRAIQINPAFADAHSNLASIHKDSGNIPEAIASYRTALKLKPDFPDAYCNLAHCLQIVCDWTDYDERMKKLVSIVADQLEKNRLPSVHPHHSMLYPLSHGFRKAIAERHGNLCLDKINVLHKPPYEHPKDLKLSDGRLRVGYVSSDFGNHPTSHLMQSIPGMHNPDKFEVFCYALSPDDGTNFRVKVMAEANHFIDLSQIPCNGKAADRIHQDGIHILVNMNGYTKGARNELFALRPAPIQAMWLGYPGTSGALFMDYIITDQETSPAEVAEQYSEKLAYMPHTFFIGDHANMFPHLKKKAVIDFKSNGHIYDNRIVLNGIDLKAFLDSLPDVKIVKMKCPDGGDNADSSNTALNMPVIPMNTIAEAVIEMINRGQIQITINGFSISNGLATTQINNKAATGEEVPRTIIVTTRSQYGLPEDAIVYCNFNQLYKIDPSTLQMWANILKRVPNSVLWLLRFPAVGEPNIQQYAQNMGLPQNRIIFSPVAPKEEHVRRGQLADVCLDTPLCNGHTTGMDVLWAGTPMVTMPGETLASRVAASQLTCLGCLELIAKNRQEYEDIAVKLGTDLEYLKKVRGKVWKQRISSPLFNTKQYTMELERLYLQMWEHYAAGNKPDHMIKPVEVTESA
Turning to B1, the binding result in the test with Flag-CDC20 is reported as “binds”.
